{
  "sequences": {"note": "Sequences of proteins named here, by UniProt entry; tags and fusion partners are left off.", "UniProt Q8IXW5": "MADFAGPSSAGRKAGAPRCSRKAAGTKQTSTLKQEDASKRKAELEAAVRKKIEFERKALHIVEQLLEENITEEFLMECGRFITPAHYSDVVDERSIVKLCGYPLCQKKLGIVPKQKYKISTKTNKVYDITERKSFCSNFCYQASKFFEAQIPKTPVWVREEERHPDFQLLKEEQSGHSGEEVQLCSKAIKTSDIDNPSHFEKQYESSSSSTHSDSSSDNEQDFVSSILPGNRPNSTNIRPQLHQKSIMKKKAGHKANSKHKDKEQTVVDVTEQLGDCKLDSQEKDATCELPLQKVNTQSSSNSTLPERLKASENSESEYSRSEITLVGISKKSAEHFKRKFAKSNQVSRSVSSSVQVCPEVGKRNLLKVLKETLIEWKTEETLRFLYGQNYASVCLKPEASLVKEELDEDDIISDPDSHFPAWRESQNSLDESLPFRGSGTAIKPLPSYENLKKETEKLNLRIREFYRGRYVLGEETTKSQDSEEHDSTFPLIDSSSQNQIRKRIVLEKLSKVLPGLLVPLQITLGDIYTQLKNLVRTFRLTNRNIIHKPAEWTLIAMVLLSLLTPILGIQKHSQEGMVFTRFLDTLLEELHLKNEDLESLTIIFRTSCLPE", "UniProt Q9UHW5": "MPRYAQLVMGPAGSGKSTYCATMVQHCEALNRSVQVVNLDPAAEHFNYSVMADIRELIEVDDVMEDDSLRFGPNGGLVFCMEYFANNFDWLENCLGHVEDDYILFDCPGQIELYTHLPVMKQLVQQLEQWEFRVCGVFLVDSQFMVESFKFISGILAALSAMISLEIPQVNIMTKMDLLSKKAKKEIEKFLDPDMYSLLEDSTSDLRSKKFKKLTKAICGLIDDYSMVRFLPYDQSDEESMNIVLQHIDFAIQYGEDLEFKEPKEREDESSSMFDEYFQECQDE", "UniProt O94762": "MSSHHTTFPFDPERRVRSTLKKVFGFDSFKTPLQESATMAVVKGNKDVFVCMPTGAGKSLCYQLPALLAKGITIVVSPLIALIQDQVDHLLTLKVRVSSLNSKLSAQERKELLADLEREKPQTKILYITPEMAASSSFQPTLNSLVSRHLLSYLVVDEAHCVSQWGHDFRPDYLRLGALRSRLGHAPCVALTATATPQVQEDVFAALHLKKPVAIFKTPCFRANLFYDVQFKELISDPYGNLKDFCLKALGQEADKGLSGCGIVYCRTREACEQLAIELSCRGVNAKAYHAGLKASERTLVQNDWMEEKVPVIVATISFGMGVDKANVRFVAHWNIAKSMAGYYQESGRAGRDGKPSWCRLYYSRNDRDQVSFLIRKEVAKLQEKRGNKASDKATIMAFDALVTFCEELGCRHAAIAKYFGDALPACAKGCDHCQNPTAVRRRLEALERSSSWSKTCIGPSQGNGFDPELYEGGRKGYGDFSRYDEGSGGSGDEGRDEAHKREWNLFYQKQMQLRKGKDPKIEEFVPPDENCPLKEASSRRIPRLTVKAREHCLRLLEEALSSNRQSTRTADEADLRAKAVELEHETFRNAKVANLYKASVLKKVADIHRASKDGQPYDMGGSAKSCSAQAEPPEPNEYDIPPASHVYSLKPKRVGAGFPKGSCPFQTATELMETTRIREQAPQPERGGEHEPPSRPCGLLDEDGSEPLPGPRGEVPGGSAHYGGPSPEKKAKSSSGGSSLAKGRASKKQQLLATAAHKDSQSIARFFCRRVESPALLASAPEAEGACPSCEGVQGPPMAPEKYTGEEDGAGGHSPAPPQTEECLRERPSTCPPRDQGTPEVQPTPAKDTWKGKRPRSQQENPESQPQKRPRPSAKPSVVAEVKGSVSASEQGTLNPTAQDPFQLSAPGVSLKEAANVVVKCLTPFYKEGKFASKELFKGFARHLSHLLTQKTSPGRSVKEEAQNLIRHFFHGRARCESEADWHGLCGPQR"},
  "source": "paper doi:10.64898/2025.12.10.692585",
  "test_in_all_cases": "affinity purification with mass spectrometry",
  "key": {"[1]": {"target": "Gdown1, endogenously tagged (eGFP-AID-3C-Gdown1) (human (endogenous in K562)) (UniProt P0CAP2)"}, "[2]": {"target": "Gdown1, endogenously tagged (eGFP-AID-3C-Gdown1) (human (endogenous in K562)) (UniProt P0CAP2)", "remark": "listed apart in the source"}, "[3]": {"target": "Gdown1, endogenously tagged (eGFP-AID-3C-Gdown1) (human (endogenous in K562)) (UniProt P0CAP2)", "remark": "listed apart in the source"}},
  "note": "Like-named read-outs stand apart in the source and are kept apart here. These are yes or no findings as the source states them, for the method shown. Binding seen in cells or lysates may run through a third protein. Here binding means that the protein was enriched with, or labelled near, the bait; the list need not be complete.",
  "data": [
    {"substance": "RPAP2, endogenous (from UniProt Q8IXW5 1-612)", "values": [
      {"measurement": "binding", "setting": "[1]", "result": "binds"},
      {"measurement": "binding", "setting": "[2]", "result": "binds"}
    ]},
    {"substance": "GPN3, endogenous (from UniProt Q9UHW5 1-284)", "values": [
      {"measurement": "binding", "setting": "[1]", "result": "binds"},
      {"measurement": "binding", "setting": "[2]", "result": "binds"}
    ]},
    {"substance": "RECQL5, endogenous (from UniProt O94762 1-991)", "values": [
      {"measurement": "binding", "setting": "[1]", "result": "binds"},
      {"measurement": "binding", "setting": "[3]", "result": "binds"}
    ]}
  ]
}
